Experimental data: PubChem BioAssay AID652272 (Drosophila RNAi Screening Center, 2013)
The screen tested about 21,000 reagents; shown is an unselected part of those with a known target gene and a result. Over the whole deposit, 503 (2.4%) were called active. 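Raw plate light values, not normalised; calls rest on replicate z-scores that were not deposited; hits include reporter decreases as well as increases.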 Entries without a mark were called inactive. Names joined by + are all predicted targets of the reagent. Reagent sequences are not shown. The record does not give: the amount of reagent, the time to read-out.

Purpose: 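Genes whose knock-down decreases or increases Hedgehog reporter output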 (primary screen)
Cells: Drosophila clone 8 (Cl8) cells
Knock-down reagent: long dsRNA against Drosophila genes
Measured: 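Plate reader light from a firefly reporter under a ptc promoter fragment that responds to Hedgehog, with Renilla light as transfection reference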
Direction: firefly Hh reporter signal: higher = more ptc reporter light; Renilla reference signal: higher = more Renilla control light
Call rule: 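Called a hit if the two-replicate mean z-score lies below -2 or above +3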
Meaning of the calls: active = hit: reporter lowered or raised; inactive = not a hit

predicted target | DRSC id | firefly Hh reporter signal, replicate 1 | firefly Hh reporter signal, replicate 2 | firefly Hh reporter signal, replicate 3 | Renilla reference signal, replicate 1 | Renilla reference signal, replicate 2
Pcmt (Protein-L-isoaspartate (D-aspartate) O-methyltransferase) | DRSC12363 | 1.19e5 | 1.44e5 | – | 2800 | 4384
SpdS (Spermidine Synthase) | DRSC16408 | 79058 | 1.47e5 | – | 2898 | 3961
Pop1 (POP1 ribonuclease P/MRP subunit) | DRSC17739 | 1.23e5 | 1.02e5 | – | 2839 | 2693
Rpn13 (Regulatory particle non-ATPase 13) | DRSC06379 | 86519 | 47971 | – | 2139 | 3321
mRF1 (mitochondrial translation release factor 1) | DRSC02880 | 94369 | 58474 | – | 4412 | 2131
CG13833 | DRSC14683 | 5.14e5 | 74193 | – | 25619 | 2328
Ubc4 (Ubiquitin conjugating enzyme 4) | DRSC11312 | 1.14e5 | 96672 | – | 4684 | 4154
Hsp67Ba (Heat shock gene 67Ba) | DRSC11191 | 40768 | 30277 | 44629 | 3497 | 3476
hpRNA:CR18854 (hairpin RNA:CR18854) | DRSC02702 | 91879 | 49868 | – | 2274 | 4129
CG15642 | DRSC19678 | 67152 | 1.93e5 | – | 1403 | 7104
Sec8 (Secretory 8) | DRSC12300 | 1.43e5 | 1.27e5 | – | 5144 | 4762
Gr39a (Gustatory receptor 39a) | DRSC01841 | 1.65e5 | 1.66e5 | – | 4258 | 8147
Gr39a (Gustatory receptor 39a) | DRSC01842 | 1.40e5 | 2.29e5 | – | 3523 | 11147
CG13868 | DRSC06427 | 1.07e5 | 38592 | – | 4449 | 1702
CG4229 | DRSC10407 | 80536 | 57862 | – | 3109 | 1991
Hacd1 (3-hydroxyacyl-CoA dehydratase 1) | DRSC02988 | 59587 | 33396 | – | 2992 | 2000
Dhit (Double hit) | DRSC07411 | 1.33e5 | 1.03e5 | – | 4898 | 4242
l(1)G0289 (lethal (1) G0289) | DRSC18215 | 87565 | 88304 | – | 2128 | 2219
AstA-R2 (Allatostatin A receptor 2) | DRSC14171 | 91480 | 89242 | – | 2553 | 2476
CycA (Cyclin A) | DRSC09132 | 91845 | 1.73e5 | – | 3029 | 8930
CycA (Cyclin A) | DRSC11123 | 1.17e5 | 52746 | – | 4614 | 2512
CG18266 | DRSC02659 | 1.53e5 | 56215 | – | 5401 | 2525
Kat60 (Katanin 60) | DRSC12378 | 84104 | 83254 | – | 3757 | 2384
CG42795 | DRSC12772 | 2.15e5 | – | – | 4880 | –
CG42795 | DRSC15533 | 58808 | 60492 | – | 1627 | 1926
Pus10 (Pseudouridine synthase 10) | DRSC00629 | 1.03e5 | 63104 | – | 4117 | 2436
ogre (optic ganglion reduced) | DRSC18809 | 76288 | 95564 | – | 1760 | 2240
CG31013 | DRSC16542 | 95068 | 91792 | – | 2132 | 2545
CG8728 | DRSC07251 | 56185 | 55009 | – | 2507 | 2164
slam (slow as molasses) | DRSC03240 | 1.10e5 | 47373 | – | 3069 | 3722
CG17239 | DRSC00492 | 1.23e5 | 94024 | – | 3000 | 2347
CG11333 | DRSC14301 | 90059 | 2.88e5 | – | 1883 | 11373
Icmt (Isoprenylcysteine carboxyl methyltransferase) | DRSC09834 | 52755 | 52074 | 74464 | 5577 | 5345
CG42741 | DRSC04593 | 1.08e5 | 77632 | – | 2240 | 7056
ave (aveugle) | DRSC05502 | 2.01e5 | 3.60e5 | – | 4769 | 13276
CG43691 | DRSC06650 | 1.09e5 | 99277 | – | 2636 | 6600
CG43691 | DRSC06651 | 83908 | 73984 | – | 1915 | 5604
CG10513 | DRSC14248 | 1.16e5 | 1.05e5 | – | 1504 | 2384
ash2 (absent, small, or homeotic discs 2) | DRSC16902 | 1.10e5 | 1.21e5 | – | 4817 | 4528
CG8089 | DRSC07074 | 99496 | 45380 | – | 2529 | 3879
Cyp9f3 (Cytochrome P450 9f3) | DRSC16636 | 87883 | 1.83e5 | – | 3464 | 4268
Fntb (Farnesyl transferase beta subunit) | DRSC15244 | 1.05e5 | 77876 | – | 4098 | 2674
mdy (midway) | DRSC01559 | 1.01e5 | 2.52e5 | – | 2873 | 10752
mdy (midway) | DRSC02250 | 73589 | 73488 | – | 2793 | 3088
Uch-L5R (Uch-L5-related) | DRSC19825 | 68696 | 1.88e5 | – | 2043 | 6780
CG6271 | DRSC16006 | 80873 | 59476 | – | 1901 | 1900
CG4968 | DRSC02794 | 1.22e5 | 6.09e5 | 99746 | 4744 | 35693
Tsp42Eo (Tetraspanin 42Eo) | DRSC06184 | 47275 | 35859 | – | 1446 | 3568
RpS14a (Ribosomal protein S14a) | DRSC18710 | 75655 (active) | 28016 | – | 5746 | 1474
CG13066 | DRSC09949 | 1.74e5 | – | – | 5868 | 5018
Cpr62Bb (Cuticular protein 62Bb) | DRSC08404 | 1.05e5 | 48658 | – | 3372 | 3828
Pkn (Protein kinase N) | DRSC06809 | 59660 | 46445 | – | 688 | 1360
Pkn (Protein kinase N) | DRSC06810 | 1.52e5 | 61917 | – | 4178 | 5842
AP-2alpha (Adaptor Protein complex 2, alpha subunit) | DRSC00800 | 1.26e5 | 77188 | – | 2922 | 1655
Pdh (Photoreceptor dehydrogenase) | DRSC11249 | 81860 | 46618 | – | 3505 | 1820
levy | DRSC04289 | 88394 | 76348 | – | 1712 | 6506
Shawn + Tyler | DRSC19564 | 1.08e5 | 1.13e5 | – | 2088 | 3048
Shawn + Tyler | DRSC19565 | 89088 | 2.63e5 | – | 2948 | 10800

9 entries from above, set out differently:
{"predicted target": "Tsp42Eo (Tetraspanin 42Eo)", "DRSC id": "DRSC06184", "firefly Hh reporter signal, replicate 1": 47275, "firefly Hh reporter signal, replicate 2": 35859, "Renilla reference signal, replicate 1": 1446, "Renilla reference signal, replicate 2": 3568}
{"predicted target": "RpS14a (Ribosomal protein S14a)", "DRSC id": "DRSC18710", "firefly Hh reporter signal, replicate 1": "75655 (active)", "firefly Hh reporter signal, replicate 2": 28016, "Renilla reference signal, replicate 1": 5746, "Renilla reference signal, replicate 2": 1474}
{"predicted target": "CG13066", "DRSC id": "DRSC09949", "firefly Hh reporter signal, replicate 1": 1.74e5, "Renilla reference signal, replicate 1": 5868, "Renilla reference signal, replicate 2": 5018}
{"predicted target": "Cpr62Bb (Cuticular protein 62Bb)", "DRSC id": "DRSC08404", "firefly Hh reporter signal, replicate 1": 1.05e5, "firefly Hh reporter signal, replicate 2": 48658, "Renilla reference signal, replicate 1": 3372, "Renilla reference signal, replicate 2": 3828}
{"predicted target": "Pkn (Protein kinase N)", "DRSC id": "DRSC06809", "firefly Hh reporter signal, replicate 1": 59660, "firefly Hh reporter signal, replicate 2": 46445, "Renilla reference signal, replicate 1": 688, "Renilla reference signal, replicate 2": 1360}
{"predicted target": "Pkn (Protein kinase N)", "DRSC id": "DRSC06810", "firefly Hh reporter signal, replicate 1": 1.52e5, "firefly Hh reporter signal, replicate 2": 61917, "Renilla reference signal, replicate 1": 4178, "Renilla reference signal, replicate 2": 5842}
{"predicted target": "AP-2alpha (Adaptor Protein complex 2, alpha subunit)", "DRSC id": "DRSC00800", "firefly Hh reporter signal, replicate 1": 1.26e5, "firefly Hh reporter signal, replicate 2": 77188, "Renilla reference signal, replicate 1": 2922, "Renilla reference signal, replicate 2": 1655}
{"predicted target": "Pdh (Photoreceptor dehydrogenase)", "DRSC id": "DRSC11249", "firefly Hh reporter signal, replicate 1": 81860, "firefly Hh reporter signal, replicate 2": 46618, "Renilla reference signal, replicate 1": 3505, "Renilla reference signal, replicate 2": 1820}
{"predicted target": "levy", "DRSC id": "DRSC04289", "firefly Hh reporter signal, replicate 1": 88394, "firefly Hh reporter signal, replicate 2": 76348, "Renilla reference signal, replicate 1": 1712, "Renilla reference signal, replicate 2": 6506}
